Laboratory results reported in article PMC10313121.
These are yes or no findings as the source states them, for the method shown. Binding seen in cells or lysates may run through a third protein. Binding calls can cover weak binding; strength is not graded here.

By UniProt entry, the sequences of proteins in these tests, tags left out. Where a name states a change or a piece, a line headed by the entry shows the natural chain unless it says otherwise.
UniProt Q13153: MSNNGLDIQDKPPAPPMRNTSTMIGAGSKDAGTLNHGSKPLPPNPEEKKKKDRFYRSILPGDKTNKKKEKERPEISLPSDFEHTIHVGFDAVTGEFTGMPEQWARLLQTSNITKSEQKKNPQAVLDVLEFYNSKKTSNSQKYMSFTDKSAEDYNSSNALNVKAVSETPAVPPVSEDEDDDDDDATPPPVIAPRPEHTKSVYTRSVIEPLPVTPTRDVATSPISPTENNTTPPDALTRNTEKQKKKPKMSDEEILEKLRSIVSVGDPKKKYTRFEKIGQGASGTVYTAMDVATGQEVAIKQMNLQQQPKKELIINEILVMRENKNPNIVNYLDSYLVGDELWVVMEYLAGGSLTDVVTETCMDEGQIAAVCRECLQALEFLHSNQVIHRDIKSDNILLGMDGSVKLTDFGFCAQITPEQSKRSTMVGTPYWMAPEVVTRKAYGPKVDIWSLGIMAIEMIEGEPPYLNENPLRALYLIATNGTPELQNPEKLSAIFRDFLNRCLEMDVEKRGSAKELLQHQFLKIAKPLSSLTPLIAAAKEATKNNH
UniProt P60953: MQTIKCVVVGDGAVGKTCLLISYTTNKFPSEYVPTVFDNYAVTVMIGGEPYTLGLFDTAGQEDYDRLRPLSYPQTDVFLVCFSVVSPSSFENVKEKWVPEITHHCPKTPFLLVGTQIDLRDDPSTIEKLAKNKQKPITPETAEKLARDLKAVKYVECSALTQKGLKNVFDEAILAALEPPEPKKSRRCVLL

Molecular target: GST-p21-binding domain of PAK1 (UniProt Q13153)
Assay: pull-down; GST-p21-binding domain of PAK1 on glutathione-Sepharose incubated with lysates of PMA-differentiated adherent THP-1 macrophages treated with EHop-016 (0-4000 nM) or MBQ-167 (0-500 nM) for 24 hrs; pulldowns Western blotted with a pan Rac (1-3) or Cdc42 antibody; only the target purified

Cdc42 (active, GTP bound) (from UniProt P60953 1-191)
binding: binds
